We go through 29 targets from the supplement of paper PMC12819154, “High-throughput peptide-centric local stability assay extends protein–ligand identification to membrane proteins, tissues and bacteria” (Nature Structural & Molecular Biology, 2025).

Chains of the proteins cited; added tags and fusions are not shown. Lines headed by an entry give the natural chain unless they say otherwise; changes in a name come on top.
UniProt Q5HY98: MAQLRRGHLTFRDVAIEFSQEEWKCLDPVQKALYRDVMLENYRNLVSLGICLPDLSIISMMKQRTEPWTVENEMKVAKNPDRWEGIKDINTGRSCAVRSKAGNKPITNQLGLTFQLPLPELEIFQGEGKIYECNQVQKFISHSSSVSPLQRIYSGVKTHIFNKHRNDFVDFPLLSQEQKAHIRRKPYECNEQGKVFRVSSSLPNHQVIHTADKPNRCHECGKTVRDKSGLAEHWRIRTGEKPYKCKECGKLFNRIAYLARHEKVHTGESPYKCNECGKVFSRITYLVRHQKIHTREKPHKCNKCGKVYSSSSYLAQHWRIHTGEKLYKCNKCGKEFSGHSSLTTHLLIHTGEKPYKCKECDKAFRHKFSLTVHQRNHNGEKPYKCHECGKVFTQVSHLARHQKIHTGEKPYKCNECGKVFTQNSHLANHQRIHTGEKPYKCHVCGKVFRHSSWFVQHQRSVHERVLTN
UniProt Q5H9R7: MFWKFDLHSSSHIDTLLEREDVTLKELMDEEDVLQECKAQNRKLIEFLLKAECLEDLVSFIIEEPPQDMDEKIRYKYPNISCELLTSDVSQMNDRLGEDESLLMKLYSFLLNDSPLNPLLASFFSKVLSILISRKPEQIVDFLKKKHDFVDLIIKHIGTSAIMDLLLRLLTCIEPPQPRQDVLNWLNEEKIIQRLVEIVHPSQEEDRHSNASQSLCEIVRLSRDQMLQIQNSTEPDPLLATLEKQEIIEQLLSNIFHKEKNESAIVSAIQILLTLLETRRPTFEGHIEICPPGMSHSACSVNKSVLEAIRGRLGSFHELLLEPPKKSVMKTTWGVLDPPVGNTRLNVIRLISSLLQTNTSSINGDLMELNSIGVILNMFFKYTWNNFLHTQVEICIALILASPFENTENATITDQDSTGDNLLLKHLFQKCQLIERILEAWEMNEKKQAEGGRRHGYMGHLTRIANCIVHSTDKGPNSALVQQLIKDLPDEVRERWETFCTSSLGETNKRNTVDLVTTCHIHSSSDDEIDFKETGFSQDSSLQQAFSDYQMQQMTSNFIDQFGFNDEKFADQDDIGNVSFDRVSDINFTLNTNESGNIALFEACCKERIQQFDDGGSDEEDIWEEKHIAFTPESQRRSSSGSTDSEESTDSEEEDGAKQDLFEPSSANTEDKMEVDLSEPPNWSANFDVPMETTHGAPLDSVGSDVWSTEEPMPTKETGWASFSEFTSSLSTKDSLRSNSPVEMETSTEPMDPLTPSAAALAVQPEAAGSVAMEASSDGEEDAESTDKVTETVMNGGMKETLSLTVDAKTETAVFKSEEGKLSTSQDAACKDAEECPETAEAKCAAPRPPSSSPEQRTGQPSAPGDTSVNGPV
UniProt Q5T8D3: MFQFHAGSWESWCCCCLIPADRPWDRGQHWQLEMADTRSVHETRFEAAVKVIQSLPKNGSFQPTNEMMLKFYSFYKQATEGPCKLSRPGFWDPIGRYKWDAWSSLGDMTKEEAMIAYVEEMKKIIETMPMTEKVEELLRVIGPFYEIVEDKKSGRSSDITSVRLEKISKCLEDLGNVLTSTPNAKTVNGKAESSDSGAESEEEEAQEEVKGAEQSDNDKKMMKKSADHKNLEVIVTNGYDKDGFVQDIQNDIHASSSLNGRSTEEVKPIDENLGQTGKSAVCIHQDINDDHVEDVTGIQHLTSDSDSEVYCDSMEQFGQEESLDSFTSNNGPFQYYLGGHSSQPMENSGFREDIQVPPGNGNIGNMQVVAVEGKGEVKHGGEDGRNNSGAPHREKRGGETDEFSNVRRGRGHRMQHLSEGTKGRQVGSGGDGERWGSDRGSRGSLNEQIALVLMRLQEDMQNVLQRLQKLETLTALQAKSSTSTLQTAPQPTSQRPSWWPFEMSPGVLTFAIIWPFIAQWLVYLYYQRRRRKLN
UniProt Q5T7W0: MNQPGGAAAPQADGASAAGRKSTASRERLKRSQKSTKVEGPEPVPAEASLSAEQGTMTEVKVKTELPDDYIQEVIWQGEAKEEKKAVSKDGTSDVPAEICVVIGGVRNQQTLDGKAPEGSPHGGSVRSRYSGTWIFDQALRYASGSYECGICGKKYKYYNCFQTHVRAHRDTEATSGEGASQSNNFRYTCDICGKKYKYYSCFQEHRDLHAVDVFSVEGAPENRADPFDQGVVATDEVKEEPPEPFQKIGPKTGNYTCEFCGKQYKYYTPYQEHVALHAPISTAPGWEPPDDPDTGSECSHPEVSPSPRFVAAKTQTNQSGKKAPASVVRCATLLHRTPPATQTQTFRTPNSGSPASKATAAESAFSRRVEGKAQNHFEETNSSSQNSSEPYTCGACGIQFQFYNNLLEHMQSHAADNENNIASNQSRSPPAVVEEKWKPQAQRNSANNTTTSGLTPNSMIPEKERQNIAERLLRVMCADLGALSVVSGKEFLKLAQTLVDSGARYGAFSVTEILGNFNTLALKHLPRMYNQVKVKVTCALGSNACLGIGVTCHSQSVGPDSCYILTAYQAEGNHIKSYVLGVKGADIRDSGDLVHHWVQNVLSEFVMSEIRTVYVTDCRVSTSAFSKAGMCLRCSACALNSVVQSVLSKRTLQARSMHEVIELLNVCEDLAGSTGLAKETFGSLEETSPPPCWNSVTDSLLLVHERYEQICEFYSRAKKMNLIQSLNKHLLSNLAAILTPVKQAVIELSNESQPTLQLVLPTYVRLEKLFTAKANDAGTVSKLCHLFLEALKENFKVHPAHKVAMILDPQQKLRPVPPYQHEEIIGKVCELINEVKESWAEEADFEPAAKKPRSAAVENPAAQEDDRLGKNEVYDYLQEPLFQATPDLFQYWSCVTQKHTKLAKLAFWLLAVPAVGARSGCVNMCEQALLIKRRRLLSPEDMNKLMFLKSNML
UniProt Q5JSL3: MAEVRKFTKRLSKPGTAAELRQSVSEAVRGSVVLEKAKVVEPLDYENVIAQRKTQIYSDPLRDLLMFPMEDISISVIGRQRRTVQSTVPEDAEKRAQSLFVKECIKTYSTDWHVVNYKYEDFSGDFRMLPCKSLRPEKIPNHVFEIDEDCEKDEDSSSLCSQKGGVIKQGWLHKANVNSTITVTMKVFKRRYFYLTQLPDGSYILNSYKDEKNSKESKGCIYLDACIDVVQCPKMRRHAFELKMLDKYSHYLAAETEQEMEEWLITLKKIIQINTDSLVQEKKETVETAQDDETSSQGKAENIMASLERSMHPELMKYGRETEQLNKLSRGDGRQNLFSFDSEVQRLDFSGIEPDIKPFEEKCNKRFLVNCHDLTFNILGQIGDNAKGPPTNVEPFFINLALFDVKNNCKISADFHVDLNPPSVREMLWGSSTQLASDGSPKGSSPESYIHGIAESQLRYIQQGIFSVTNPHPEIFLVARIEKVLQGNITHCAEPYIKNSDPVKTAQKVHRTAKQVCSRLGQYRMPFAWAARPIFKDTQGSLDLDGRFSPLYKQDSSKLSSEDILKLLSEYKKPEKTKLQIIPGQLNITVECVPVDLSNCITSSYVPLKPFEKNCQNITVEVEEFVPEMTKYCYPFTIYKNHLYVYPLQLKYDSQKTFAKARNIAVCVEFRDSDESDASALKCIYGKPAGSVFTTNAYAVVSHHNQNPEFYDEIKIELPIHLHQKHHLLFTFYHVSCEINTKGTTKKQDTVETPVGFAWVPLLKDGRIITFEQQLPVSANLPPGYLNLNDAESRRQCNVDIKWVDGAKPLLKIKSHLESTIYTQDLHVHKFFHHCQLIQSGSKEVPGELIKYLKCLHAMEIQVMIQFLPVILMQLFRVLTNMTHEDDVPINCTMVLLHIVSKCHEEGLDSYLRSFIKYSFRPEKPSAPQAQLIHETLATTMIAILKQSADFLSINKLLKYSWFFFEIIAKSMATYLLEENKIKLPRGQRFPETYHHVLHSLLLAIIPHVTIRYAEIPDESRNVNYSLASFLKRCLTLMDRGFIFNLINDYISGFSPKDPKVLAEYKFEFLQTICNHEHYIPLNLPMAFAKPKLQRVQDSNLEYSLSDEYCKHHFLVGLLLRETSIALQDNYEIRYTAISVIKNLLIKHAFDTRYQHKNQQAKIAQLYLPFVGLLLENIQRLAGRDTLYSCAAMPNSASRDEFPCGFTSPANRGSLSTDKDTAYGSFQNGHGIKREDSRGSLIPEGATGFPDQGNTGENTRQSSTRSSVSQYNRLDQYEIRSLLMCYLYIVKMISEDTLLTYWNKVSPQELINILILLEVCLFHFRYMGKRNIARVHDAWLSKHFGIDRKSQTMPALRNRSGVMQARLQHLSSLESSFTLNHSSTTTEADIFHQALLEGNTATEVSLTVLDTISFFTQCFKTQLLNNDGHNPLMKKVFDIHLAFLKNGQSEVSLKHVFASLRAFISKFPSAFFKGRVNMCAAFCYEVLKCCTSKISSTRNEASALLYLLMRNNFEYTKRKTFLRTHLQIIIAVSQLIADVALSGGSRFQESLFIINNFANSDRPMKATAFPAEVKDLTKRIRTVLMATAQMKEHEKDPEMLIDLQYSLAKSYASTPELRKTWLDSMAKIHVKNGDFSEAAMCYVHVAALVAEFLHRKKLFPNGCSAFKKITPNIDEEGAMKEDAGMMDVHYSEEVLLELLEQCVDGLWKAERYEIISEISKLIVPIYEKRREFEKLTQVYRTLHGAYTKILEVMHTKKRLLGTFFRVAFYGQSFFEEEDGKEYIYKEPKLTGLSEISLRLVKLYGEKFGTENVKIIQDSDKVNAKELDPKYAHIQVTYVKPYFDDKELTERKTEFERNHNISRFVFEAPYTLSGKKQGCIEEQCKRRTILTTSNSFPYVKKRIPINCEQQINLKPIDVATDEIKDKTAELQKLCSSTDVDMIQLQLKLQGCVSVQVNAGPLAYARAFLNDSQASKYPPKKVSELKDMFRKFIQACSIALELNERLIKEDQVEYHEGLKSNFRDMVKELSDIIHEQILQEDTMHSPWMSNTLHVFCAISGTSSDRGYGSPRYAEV
UniProt Q5JXC2: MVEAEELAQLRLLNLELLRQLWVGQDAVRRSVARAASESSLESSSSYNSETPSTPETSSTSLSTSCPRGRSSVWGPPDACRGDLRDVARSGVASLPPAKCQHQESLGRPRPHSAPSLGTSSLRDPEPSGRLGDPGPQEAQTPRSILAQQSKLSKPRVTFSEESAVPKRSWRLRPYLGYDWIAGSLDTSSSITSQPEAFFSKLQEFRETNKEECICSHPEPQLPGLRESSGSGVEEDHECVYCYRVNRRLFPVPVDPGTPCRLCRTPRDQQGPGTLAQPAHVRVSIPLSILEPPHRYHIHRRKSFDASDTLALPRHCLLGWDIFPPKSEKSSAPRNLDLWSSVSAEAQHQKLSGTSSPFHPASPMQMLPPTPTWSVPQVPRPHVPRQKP
UniProt Q4VXU2, whole entry: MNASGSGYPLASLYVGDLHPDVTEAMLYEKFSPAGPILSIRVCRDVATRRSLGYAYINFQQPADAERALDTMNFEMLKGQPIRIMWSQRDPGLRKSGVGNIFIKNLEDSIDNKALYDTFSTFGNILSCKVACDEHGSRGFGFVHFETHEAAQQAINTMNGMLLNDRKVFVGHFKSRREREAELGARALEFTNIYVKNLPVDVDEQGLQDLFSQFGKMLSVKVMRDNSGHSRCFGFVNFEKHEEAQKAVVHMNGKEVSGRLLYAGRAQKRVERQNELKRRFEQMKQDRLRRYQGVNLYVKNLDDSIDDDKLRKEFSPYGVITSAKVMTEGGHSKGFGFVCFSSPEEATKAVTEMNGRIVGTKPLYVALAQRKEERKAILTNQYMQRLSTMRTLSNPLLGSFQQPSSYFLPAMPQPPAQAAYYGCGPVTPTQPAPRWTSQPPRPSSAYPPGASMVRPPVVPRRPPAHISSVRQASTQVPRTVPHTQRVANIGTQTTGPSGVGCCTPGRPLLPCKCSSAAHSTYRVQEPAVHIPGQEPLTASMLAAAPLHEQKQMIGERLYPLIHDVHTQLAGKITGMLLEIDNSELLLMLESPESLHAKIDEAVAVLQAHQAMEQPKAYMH
UniProt Q53T94: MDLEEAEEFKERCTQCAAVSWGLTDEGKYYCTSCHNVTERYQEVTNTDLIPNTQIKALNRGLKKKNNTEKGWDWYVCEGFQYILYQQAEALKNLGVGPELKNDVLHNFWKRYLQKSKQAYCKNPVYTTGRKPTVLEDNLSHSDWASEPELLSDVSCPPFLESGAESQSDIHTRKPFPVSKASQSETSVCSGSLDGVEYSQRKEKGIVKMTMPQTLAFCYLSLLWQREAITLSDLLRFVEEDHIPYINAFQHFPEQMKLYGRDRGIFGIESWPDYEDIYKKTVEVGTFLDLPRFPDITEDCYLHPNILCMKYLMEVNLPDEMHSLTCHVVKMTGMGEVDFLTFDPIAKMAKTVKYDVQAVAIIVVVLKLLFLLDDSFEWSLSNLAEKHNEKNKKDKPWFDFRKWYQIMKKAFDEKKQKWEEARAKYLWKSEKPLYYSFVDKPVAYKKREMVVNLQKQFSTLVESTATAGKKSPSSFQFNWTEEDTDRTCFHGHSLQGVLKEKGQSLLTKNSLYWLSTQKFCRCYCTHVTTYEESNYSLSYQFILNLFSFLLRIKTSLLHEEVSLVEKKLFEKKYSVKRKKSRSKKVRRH

Some of the results follow. Small differences around the control level are noise.

Compound in the test: Cc1nc(Nc2ncc(C(=O)Nc3c(C)cccc3Cl)s2)cc(N2CCN(CCO)CC2)n1 [dasatinib]
Briefly: log2 fold change of tryptic peptide abundance, ligand vs vehicle (limited proteolysis) (log2 ratio); higher = more trypsin-susceptible (destabilized). To be noted: ligand concentration: 5 uM; sample: K562 cleared lysate.
Turning to “DALRD3 (peptide sequence: SHALEELTSANDGR, peptide start residue: 193) (UniProt Q5D0E6)”, the log2 fold change was -0.0758. With “DOP1A (peptide sequence: AIMDNLMTHDKTTFR, peptide start residue: 2133) (UniProt Q5JWR5)”, the log2 fold change is -0.59. As for “UniProt Q5MIZ7 (peptide sequence: ESEDKENLPK, peptide start residue: 756)”, the figure is -0.156; as for “UniProt Q5HY98 (peptide sequence: IYECNQVQK, peptide start residue: 130)”, 0.00682; as for “VARS2 (peptide sequence: VTPAHSPADAEMGAR, peptide start residue: 393) (UniProt Q5ST30)”, -1.26. As for “CEP350 (peptide sequence: GHHDDSDEEASPEK, peptide start residue: 1643) (UniProt Q5VT06)”, the figure is 1.07; as for “UniProt Q5H9R7 (peptide sequence: FDLHSSSHIDTLLEREDVTLK, peptide start residue: 5)”, 0.776.

“UniProt Q5JUX0 (peptide sequence: ISDTHLAEIMVGK, peptide start residue: 119)”: the log2 fold change was determined as 0.355. Consider “PLEKHG4 (peptide sequence: DIAPSEEAINDR, peptide start residue: 1053) (UniProt Q58EX7)”, for which the log2 fold change came to 0.0677.

For the target “UniProt Q5JUR7 (peptide sequence: LKIPFGNK, peptide start residue: 8)”, the log2 fold change is -0.103. For the target “UniProt Q5FBB7 (peptide sequence: LIQPGTFTK, peptide start residue: 259)”, the log2 fold change turned out to be 0.379. As for “DNTTIP2 (peptide sequence: SLSEINKPNFYNNDFDDDFSHR, peptide start residue: 251) (UniProt Q5QJE6)”, the figure is -0.351. Turning to “RBM48 (peptide sequence: NSVACPGAQK, peptide start residue: 254) (UniProt Q5RL73)”, the log2 fold change is -0.35. For “CC2D1B (peptide sequence: FEFHYPNSDQAQK, peptide start residue: 728) (UniProt Q5T0F9)” the value was -0.546; for “ACBD5 (peptide sequence: STEEVKPIDENLGQTGK, peptide start residue: 262) (UniProt Q5T8D3)”, -0.686. For “ZNF618 (peptide sequence: TPNSGSPASK, peptide start residue: 349) (UniProt Q5T7W0)” the value was 0.761; for “PCID2 (peptide sequence: AIDSSNLKDDYSTAQR, peptide start residue: 194) (UniProt Q5JVF3)”, 0.163. Turning to “DOCK11 (peptide sequence: RQCNVDIK, peptide start residue: 795) (UniProt Q5JSL3)”, the log2 fold change came to 0.373. Regarding “MIIP (peptide sequence: LFPVPVDPGTPCRLCR, peptide start residue: 249) (UniProt Q5JXC2)”, the log2 fold change was 0.14. For “CCDC93 (peptide sequence: EEMGDYIR, peptide start residue: 132) (UniProt Q567U6)” the value was -0.269; for “UniProt Q5THK1 (peptide sequence: VKGEETEEHQR, peptide start residue: 1333)”, 0.532. As for “UniProt Q4VXU2 (peptide sequence: CFGFVNFEKHEEAQK, peptide start residue: 232)”, the log2 fold change is -0.302. As for “RNF187 (peptide sequence: SLLQAVSELEK, peptide start residue: 213) (UniProt Q5TA31)”, the figure is -0.119. In the case of “PDCD4 (peptide sequence: DLPELALDTPR, peptide start residue: 246) (UniProt Q53EL6)”, the log2 fold change worked out at 0.0999. As for “UniProt Q5TEC6 (peptide sequence: SAPATGGVKKPHR, peptide start residue: 29)”, the figure is -0.147. As to “UniProt Q460N3 (peptide sequence: RRETEEK, peptide start residue: 1155)”, the log2 fold change is -0.0648. On to “UniProt Q3SXZ3 (peptide sequence: DVMLENYR, peptide start residue: 35)”, for which the log2 fold change was 0.00107.

Turning to “UniProt Q5T6F0 (peptide sequence: GWLNHDETWR, peptide start residue: 399)”, the log2 fold change was 0.253. As for “TAF1B (peptide sequence: EMVVNLQK, peptide start residue: 448) (UniProt Q53T94)”, the figure is 0.374.
